These are yes or no findings as the source states them, for the method shown. Binding seen in cells or lysates may run through a third protein. A yes stands for co-enrichment or nearness to the bait. Other partners may have been found. Where a sequence is shown, tags or fusion partners need not be part of it.
These substances were tested against T1, C-terminal 3× FLAG-HA-tagged CT47 (human) (UniProt Q5JQC4) (assay: affinity purification with mass spectrometry; CT47-3×FLAG.HA expressed in HEK293T; FLAG-immunoprecipitation followed by HA-immunoprecipitation (FLAG HA Tandem Affinity Purification Kit) from the cell lysate; eluate run on a gel, silver stained, LC-MS/MS; control: pCMV-tag2b plasmid).
T1 sequence: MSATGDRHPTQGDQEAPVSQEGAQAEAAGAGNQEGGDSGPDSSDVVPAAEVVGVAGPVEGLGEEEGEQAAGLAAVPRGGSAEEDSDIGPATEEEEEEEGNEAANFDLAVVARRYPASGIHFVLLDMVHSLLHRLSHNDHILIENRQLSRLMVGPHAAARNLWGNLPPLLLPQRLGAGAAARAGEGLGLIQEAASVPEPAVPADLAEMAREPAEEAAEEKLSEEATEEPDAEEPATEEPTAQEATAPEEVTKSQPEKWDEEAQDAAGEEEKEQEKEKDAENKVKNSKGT

The chains behind the UniProt entries cited, without tags or fusion partners. Residues count along the entry.
UniProt P25705, residues 44-553: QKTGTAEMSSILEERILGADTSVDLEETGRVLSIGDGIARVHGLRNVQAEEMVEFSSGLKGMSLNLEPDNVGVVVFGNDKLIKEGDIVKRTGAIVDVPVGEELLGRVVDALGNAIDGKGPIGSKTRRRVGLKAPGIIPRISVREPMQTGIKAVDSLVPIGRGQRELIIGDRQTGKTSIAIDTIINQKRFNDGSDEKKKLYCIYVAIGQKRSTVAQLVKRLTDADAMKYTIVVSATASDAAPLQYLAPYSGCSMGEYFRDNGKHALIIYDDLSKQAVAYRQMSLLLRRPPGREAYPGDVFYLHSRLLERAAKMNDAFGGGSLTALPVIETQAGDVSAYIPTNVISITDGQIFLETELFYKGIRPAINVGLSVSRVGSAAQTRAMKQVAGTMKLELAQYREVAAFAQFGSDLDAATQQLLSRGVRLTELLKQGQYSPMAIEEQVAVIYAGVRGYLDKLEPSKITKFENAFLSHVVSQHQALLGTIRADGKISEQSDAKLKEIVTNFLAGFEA
UniProt P34931: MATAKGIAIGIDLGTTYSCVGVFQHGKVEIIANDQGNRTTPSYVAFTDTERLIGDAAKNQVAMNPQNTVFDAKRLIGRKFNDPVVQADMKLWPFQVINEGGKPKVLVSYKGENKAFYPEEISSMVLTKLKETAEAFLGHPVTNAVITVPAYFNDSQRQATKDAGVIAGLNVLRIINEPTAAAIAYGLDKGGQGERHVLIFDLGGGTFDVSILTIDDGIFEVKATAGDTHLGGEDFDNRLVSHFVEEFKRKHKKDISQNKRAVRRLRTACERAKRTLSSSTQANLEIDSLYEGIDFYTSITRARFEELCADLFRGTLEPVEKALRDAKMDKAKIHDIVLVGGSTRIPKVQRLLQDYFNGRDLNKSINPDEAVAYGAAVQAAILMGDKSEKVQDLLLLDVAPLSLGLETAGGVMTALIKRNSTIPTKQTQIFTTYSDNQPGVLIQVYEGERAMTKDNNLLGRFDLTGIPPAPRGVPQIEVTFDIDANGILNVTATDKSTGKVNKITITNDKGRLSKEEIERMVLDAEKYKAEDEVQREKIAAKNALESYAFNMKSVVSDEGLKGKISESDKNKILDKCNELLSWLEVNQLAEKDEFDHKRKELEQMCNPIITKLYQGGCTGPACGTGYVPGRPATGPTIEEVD
UniProt P11142: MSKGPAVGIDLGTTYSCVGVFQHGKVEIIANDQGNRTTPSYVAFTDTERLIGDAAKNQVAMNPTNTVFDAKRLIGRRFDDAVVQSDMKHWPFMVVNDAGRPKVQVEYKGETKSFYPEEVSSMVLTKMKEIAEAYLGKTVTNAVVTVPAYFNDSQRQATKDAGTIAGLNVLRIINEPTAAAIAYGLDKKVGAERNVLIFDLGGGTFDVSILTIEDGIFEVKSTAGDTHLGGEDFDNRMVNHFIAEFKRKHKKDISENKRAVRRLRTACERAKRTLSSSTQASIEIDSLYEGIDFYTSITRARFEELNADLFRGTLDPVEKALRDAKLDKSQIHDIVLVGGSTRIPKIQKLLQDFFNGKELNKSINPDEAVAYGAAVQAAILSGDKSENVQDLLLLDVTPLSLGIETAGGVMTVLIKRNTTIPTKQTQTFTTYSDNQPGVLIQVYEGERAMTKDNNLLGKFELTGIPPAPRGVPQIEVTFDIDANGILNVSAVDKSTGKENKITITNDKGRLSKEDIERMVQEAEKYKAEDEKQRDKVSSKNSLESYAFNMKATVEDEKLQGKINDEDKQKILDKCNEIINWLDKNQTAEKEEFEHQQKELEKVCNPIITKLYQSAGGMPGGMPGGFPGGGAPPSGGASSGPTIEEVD
UniProt P19474: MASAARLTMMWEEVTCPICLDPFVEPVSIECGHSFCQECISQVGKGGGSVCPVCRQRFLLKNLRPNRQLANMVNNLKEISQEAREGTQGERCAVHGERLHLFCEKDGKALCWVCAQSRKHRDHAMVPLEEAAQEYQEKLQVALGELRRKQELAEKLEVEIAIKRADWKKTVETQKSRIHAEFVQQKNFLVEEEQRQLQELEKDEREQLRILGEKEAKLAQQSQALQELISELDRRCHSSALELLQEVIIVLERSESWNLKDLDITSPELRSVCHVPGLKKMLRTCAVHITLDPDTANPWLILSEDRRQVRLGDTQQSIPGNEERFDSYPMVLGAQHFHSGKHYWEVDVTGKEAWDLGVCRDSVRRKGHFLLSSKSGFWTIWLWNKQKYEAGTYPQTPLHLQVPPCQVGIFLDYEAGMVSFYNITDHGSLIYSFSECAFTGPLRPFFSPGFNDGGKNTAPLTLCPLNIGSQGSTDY
UniProt P07437: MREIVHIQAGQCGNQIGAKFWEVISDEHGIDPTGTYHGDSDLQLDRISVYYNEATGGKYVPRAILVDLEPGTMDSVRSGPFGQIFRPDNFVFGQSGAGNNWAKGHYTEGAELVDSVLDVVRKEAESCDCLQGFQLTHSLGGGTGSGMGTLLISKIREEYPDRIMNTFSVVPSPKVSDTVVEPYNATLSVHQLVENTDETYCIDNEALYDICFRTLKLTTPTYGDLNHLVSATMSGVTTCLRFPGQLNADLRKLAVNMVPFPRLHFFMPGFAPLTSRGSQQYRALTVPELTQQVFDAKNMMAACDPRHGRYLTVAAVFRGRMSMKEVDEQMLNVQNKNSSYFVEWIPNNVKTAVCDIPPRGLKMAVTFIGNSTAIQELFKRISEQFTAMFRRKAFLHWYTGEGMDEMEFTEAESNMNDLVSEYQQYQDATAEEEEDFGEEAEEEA
UniProt P11021, residues 19-654: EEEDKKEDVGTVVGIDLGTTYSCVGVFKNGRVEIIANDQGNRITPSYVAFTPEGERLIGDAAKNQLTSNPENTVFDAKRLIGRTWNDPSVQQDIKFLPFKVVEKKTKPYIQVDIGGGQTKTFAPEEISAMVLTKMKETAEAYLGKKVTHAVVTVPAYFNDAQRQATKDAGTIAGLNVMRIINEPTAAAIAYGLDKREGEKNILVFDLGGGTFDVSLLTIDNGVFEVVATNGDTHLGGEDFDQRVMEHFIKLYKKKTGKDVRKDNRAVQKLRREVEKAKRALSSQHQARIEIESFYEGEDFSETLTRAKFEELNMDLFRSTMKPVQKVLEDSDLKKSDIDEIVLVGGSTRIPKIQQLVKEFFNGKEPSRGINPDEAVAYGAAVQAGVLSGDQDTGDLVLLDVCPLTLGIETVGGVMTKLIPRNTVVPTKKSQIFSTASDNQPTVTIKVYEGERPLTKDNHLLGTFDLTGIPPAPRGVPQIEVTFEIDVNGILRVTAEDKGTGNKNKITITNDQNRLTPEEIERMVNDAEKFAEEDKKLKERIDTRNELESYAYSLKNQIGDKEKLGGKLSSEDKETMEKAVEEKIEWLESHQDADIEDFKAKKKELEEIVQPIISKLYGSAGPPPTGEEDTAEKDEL
UniProt P17066: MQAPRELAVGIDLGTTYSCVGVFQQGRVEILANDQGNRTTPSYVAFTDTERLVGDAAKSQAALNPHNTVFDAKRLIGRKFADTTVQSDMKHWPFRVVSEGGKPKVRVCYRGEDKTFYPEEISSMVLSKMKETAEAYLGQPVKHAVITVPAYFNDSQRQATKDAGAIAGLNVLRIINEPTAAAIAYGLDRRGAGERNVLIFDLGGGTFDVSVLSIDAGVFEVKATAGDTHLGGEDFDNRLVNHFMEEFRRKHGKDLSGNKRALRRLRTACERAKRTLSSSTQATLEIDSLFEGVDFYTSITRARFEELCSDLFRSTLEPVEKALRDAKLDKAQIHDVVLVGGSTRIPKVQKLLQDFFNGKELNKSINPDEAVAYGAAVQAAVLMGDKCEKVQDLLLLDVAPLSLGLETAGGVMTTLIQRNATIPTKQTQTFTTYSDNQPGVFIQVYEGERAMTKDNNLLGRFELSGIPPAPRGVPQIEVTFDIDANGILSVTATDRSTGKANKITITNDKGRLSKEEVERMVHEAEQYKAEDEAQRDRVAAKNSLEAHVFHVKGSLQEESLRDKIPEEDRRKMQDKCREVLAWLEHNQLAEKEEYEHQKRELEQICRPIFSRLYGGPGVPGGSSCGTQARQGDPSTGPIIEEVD
UniProt O14744: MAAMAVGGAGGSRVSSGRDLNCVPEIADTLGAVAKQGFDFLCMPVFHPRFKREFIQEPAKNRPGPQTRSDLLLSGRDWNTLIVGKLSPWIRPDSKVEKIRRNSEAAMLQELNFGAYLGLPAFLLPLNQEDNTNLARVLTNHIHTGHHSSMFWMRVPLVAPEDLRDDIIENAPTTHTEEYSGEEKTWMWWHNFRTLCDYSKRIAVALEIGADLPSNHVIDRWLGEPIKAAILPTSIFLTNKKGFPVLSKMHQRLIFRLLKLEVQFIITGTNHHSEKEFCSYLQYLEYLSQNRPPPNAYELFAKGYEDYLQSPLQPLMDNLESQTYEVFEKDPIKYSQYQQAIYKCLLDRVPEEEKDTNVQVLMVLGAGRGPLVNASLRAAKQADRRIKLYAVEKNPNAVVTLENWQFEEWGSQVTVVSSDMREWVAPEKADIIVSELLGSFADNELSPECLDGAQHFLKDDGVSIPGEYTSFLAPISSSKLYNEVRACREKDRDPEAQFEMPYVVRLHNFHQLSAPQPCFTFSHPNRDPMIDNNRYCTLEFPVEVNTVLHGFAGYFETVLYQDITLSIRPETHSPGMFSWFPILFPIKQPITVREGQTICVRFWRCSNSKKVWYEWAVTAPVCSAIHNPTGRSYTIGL
UniProt P68371: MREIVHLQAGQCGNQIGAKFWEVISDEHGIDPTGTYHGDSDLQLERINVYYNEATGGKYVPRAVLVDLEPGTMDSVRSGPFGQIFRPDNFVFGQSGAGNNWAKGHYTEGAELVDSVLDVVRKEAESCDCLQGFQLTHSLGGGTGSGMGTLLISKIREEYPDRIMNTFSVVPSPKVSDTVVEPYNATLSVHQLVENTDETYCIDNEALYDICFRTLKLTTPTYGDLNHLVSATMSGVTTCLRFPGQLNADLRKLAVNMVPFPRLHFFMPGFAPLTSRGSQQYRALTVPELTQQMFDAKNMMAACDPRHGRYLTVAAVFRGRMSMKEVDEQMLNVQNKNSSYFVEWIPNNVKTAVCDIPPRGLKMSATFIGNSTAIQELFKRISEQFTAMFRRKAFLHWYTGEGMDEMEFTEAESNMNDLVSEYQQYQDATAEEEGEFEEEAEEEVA

Substance | binding
ATP5A1 (from UniProt P25705 44-553) | binds
HSP9A (human (endogenous in HEK293T)) | binds
HSPA1L (from UniProt P34931 1-641) | binds
HSPA8 (from UniProt P11142 1-646) | binds
TRIM21 (from UniProt P19474 1-475) | binds
TUBB (from UniProt P07437 1-444) | binds

Continued, values first:

binding | Substance
binds | HSPA5 (from UniProt P11021 19-654)
binds | HSPA6 (from UniProt P17066 1-643)
binds | PRMT5 (from UniProt O14744 1-637) (enzyme)
binds | TUBB4B (from UniProt P68371 1-445)

Source: paper PMC9345867
